Measured values from patent US8106155B2, “Test kit for determining process for determining antibiotics containing a beta-lactam ring in a biological fluid” (Neogen Corporation, priority 1998, dated 2012).
Some entries share one result that the patent states for a list of compounds.

Chains of the proteins cited; added tags and fusions are not shown. Residues count along the entry.
UniProt P12287, 354-601: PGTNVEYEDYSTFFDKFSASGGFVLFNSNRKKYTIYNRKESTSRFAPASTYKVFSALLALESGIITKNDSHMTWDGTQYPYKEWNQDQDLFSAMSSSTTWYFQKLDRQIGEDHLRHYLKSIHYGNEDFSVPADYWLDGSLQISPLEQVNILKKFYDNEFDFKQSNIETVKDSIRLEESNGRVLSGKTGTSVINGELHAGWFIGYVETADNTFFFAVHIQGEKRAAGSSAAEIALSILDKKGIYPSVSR

Target: T1, BlaR-CTD receptor in the form of a fusion protein with alkaline phosphatase or peroxidase (Bacillus licheniformis, UniProt P12287)
T1 construct: uses the BlaR-CTD receptor in the form of a fusion protein with alkaline phosphatase or peroxidase
Assay: Example 4: BlaR-CTD fusion protein with alkaline phosphatase or peroxidase, coated tube, milk
Type: binding
Conditions: absorbance at 405 nm, 47° C.
Experimental: The test described in this example uses the BlaR-CTD receptor in the form of a fusion protein with alkaline phosphatase or peroxidase, and uses a support in the form of a coated tube.
In this example, polystyrene tubes with high protein absorption of the brand name NUNK (Maxisorp type) are used, which are treated with a reference antibiotic solution as indicated in Example 3.3.2.
7 picomol of recognition agent are incubated in the presence of 500 μl of milk for 5 minutes at 47° C. in an Eppendorf tube. […] The milk is then incubated for 2 minutes at 47° C. After removing the milk, the tube is washed twice with 1 ml of 1 M, pH 9.8 diethanolamine buffer, 0.5 mM MgCl2. […] The absorbance of the supernatant is then measured using a spectrophotometer whose wavelength is set at 405 nm.

CC1(C)S[C@@H]2[C@H](NC(=O)[C@H](N)c3ccccc3)C(=O)N2[C@H]1C(=O)O [ampicillin]
concentration determined in milk: less than 10 ppb
